Values from PubChem BioAssay AID1259282 (Sanger Institute, 2017).
The deposit covers 794 reagents; shown is a random part of them. 11 of all reagents (1.4%) count as active. 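Calls flag knock-downs that lower viability without drug; drug synergy appears only in the synergy scores; exposure time not stated.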 Further read-outs or replicates are left out here. No sequences are given here. Not stated in the record: the amount of reagent, the time to read-out.

- Screen: 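Kinases whose loss reduces viability on their own or with anchor drugs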 (primary screen)
- Cell system: DIFI human colorectal cancer cell line
- Knock-down reagent: siRNA pool against human genes
- Challenge: anchor drug at a mild dose (BYL719 1 µM, cetuximab 5 µg/ml, trametinib 10 nM) or DMSO vehicle; exposure time not given
- Measurement: 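Viability relative to non-targeting pool wells, replicate mean, in DMSO or low-dose BYL719, cetuximab or trametinib; robust z-score without drug; synergy score per drug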
- Scale: robust z-score, knock-down alone: higher = more viable cells than typical knock-down
- Call rule: 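a knock-down is called essential if its DMSO robust z-score is under -3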
- Calls: active = essential (knock-down alone, z below -3); inactive = not essential

gene knocked down	robust z-score, knock-down alone	activity call
SIK1 (salt inducible kinase 1)	0.555	inactive
SYNCRIP (synaptotagmin binding cytoplasmic RNA interacting protein)	-2.18	inactive
BMP2K (BMP2 inducible kinase)	0.715	inactive
PIK3R2 (phosphoinositide-3-kinase regulatory subunit 2)	0.715	inactive
MAP2K2 (mitogen-activated protein kinase kinase 2)	0.715	inactive
MARK1 (microtubule affinity regulating kinase 1)	-1.28	inactive
DGKH (diacylglycerol kinase eta)	0.715	inactive
SRMS	0.177	inactive
WT1 (WT1 transcription factor)	0.715	inactive
PRKCH (protein kinase C eta)	-1.31	inactive
EPHA10 (EPH receptor A10)	-1.84	inactive
AKT1 (AKT serine/threonine kinase 1)	-0.224	inactive
TK2 (thymidine kinase 2)	0.715	inactive
ROR1 (ROR family WNT receptor 1)	0.715	inactive
SMG1	0.715	inactive
CSNK1G2 (casein kinase 1 gamma 2)	0.715	inactive
ZAP70 (zeta chain of T cell receptor associated protein kinase 70)	-0.543	inactive
TAB1 (TGF-beta activated kinase 1 (MAP3K7) binding protein 1)	0.23	inactive
MAPK14 (mitogen-activated protein kinase 14)	0.715	inactive
RIPK3 (receptor interacting serine/threonine kinase 3)	0.715	inactive

Laid out differently: 3 of the entries above.
gene knocked down | robust z-score, knock-down alone | activity call
EPHA10 (EPH receptor A10) | -1.84 | inactive
AKT1 (AKT serine/threonine kinase 1) | -0.224 | inactive
TK2 (thymidine kinase 2) | 0.715 | inactive

Further results:
gene knocked down	robust z-score, knock-down alone	activity call
ALDH18A1 (aldehyde dehydrogenase 18 family member A1)	0.715	inactive
EFNB3 (ephrin B3)	-2.14	inactive
MATK (megakaryocyte-associated tyrosine kinase)	0.715	inactive
SYK (spleen associated tyrosine kinase)	-0.25	inactive
PKDCC (protein kinase domain containing, cytoplasmic)	0.53	inactive
MAP2K4 (mitogen-activated protein kinase kinase 4)	0.715	inactive
PRP4K (pre-mRNA processing factor kinase PRP4K)	-0.46	inactive
RET (ret proto-oncogene)	-0.258	inactive
PRKACB (protein kinase cAMP-activated catalytic subunit beta)	0.715	inactive
LATS1 (large tumor suppressor kinase 1)	-0.498	inactive
DTYMK (deoxythymidylate kinase)	0.715	inactive
PTK2B (protein tyrosine kinase 2 beta)	-0.459	inactive
PRKCA (protein kinase C alpha)	-0.0557	inactive
MYLK (myosin light chain kinase)	-2.4	inactive
DIS3 (DIS3 exosome endoribonuclease and 3'-5' exoribonuclease)	0.715	inactive
CDADC1 (cytidine and dCMP deaminase domain containing 1)	0.413	inactive
FGFR1 (fibroblast growth factor receptor 1)	0.715	inactive
CDKN1A (cyclin dependent kinase inhibitor 1A)	0.715	inactive
MAST2 (microtubule associated serine/threonine kinase 2)	0.715	inactive
ARAF (A-Raf proto-oncogene, serine/threonine kinase)	0.715	inactive
FASTK (Fas activated serine/threonine kinase)	0.715	inactive
STK25 (serine/threonine kinase 25)	0.715	inactive
VRK1 (VRK serine/threonine kinase 1)	0.715	inactive
COASY (Coenzyme A synthase)	-1.99	inactive
PRKCE (protein kinase C epsilon)	-2.3	inactive
IKBKB (inhibitor of nuclear factor kappa B kinase subunit beta)	0.333	inactive
CHKB (choline kinase beta)	0.715	inactive
MAP3K12 (mitogen-activated protein kinase kinase kinase 12)	0.715	inactive
CDKN2C (cyclin dependent kinase inhibitor 2C)	-1.38	inactive
NEK9 (NIMA related kinase 9)	0.0493	inactive
